Laboratory results from paper PMC3394770, “Ipomoelin, a Jacalin-Related Lectin with a Compact Tetrameric Association and Versatile Carbohydrate Binding Properties Regulated by Its N Terminus” (PLoS ONE, 2012).
Results are given in words; binding and its absence hold for the method and conditions named.

Biological target: truncated IPO (ΔN10IPO) (sweet potato (Ipomoea batatas cv. Tainung 57)) (UniProt P93193)
Assay: SEC; HiLoad 16/60 Superdex 200; 27 mM Tris-HCl pH 7.0, 2 M NaCl with 1 M glucose (to eliminate binding to the dextran matrix); 2 ml of 0.5 mg/ml protein, 0.6 ml/min; mass from the regression of BioRad standard markers; both purified

binding: no binding (tested: 0.5 mg/ml)
B1: truncated IPO (ΔN10IPO) (domain or fragment, UniProt P93193 11-154)
chain: ARSGPVGSNGGQFWSFRPVRPLNKIVLSFSGSPDQTLNLISITFSSNPTDIITVGGVGPEPLTYTETVNIDGDIIEISGMIANYKGYNVIRSIKFTTNKKEYGPYGANAGTPFNIKIPDGNKIVGFFGNSGWYVDAIGAYYTAK
